Common to all, as to experiment: log2 fold change, soluble protein after heating vs DMSO (PISA); higher = thermal stabilisation; K562 cells, 10 uM, 30 min; active = over 0.2 and 3.5 SD of the protein, either way, in both replicates (recomputed)
Compound in assay [1]: C1COCCN1CCN2C3=CC=CC=C3N=C2NC(=O)C4=CC(=CC=C4)[N+](=O)[O-] [IRAK-1-4 Inhibitor I]
The essentials:
(§1)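 Thermal stability values are relative to control samples and come from duplicates. They are expressed as log2 fold changes. For measurement, K562 cells (2×10^6 cells/mL) received 10 μM compound for 30 min, and aliquots were heated for 3 min over 48°C-58°C, pooled, and extracted at 4°C in PBS with 0.5% NP-40. Soluble protein, the supernatant after 21,000xg for 90 min, was quantified by TMTpro 16plex LC-MS/MS with equalised channel sums.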

Amino acid sequences for entries named in this document (tags omitted). A change or cut given only in a name is not applied to a line headed by its entry.
UniProt Q8TEB9: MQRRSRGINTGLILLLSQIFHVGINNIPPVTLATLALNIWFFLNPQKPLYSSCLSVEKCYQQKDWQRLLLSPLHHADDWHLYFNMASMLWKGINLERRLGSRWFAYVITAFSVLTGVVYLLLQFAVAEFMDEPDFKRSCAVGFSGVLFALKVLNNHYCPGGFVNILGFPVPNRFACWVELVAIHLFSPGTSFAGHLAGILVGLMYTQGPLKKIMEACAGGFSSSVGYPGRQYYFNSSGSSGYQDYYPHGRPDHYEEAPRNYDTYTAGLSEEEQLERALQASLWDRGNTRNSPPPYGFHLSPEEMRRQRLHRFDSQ
UniProt Q9BQY4: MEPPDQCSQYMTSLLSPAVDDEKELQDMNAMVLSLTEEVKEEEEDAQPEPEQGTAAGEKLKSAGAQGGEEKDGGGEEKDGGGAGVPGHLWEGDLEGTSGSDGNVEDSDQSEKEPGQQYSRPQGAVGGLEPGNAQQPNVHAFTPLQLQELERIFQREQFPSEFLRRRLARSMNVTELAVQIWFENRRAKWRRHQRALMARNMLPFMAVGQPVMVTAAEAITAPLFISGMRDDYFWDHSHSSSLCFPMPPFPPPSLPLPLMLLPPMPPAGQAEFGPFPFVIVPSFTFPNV
UniProt Q96DM3: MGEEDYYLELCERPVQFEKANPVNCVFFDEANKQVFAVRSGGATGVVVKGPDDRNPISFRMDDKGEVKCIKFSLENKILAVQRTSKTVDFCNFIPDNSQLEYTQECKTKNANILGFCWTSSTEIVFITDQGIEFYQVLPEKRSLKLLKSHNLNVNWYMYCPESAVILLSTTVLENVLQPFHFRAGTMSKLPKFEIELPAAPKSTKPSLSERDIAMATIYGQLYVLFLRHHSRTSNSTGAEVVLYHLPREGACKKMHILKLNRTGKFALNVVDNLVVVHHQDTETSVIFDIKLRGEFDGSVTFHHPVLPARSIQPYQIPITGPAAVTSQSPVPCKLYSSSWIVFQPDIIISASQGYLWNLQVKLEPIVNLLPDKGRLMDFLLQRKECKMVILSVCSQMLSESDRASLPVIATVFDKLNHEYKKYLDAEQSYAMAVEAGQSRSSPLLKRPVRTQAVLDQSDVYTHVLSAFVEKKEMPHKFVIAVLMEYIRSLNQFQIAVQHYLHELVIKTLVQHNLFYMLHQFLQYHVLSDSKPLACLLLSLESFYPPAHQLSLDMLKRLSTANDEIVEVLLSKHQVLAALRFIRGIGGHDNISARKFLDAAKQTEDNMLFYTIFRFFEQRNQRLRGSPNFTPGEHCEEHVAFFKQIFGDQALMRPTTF
UniProt Q02161: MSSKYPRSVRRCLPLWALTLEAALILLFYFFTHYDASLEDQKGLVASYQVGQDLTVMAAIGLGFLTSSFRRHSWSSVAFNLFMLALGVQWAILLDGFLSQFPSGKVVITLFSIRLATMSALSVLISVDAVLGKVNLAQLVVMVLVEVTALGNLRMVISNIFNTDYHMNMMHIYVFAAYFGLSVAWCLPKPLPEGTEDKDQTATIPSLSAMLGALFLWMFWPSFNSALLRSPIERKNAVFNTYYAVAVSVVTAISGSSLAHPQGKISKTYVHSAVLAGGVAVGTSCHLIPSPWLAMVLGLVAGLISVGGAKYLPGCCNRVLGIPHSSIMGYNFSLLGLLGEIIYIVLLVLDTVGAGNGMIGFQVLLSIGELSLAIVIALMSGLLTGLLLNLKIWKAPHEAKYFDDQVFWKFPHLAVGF
UniProt P18754: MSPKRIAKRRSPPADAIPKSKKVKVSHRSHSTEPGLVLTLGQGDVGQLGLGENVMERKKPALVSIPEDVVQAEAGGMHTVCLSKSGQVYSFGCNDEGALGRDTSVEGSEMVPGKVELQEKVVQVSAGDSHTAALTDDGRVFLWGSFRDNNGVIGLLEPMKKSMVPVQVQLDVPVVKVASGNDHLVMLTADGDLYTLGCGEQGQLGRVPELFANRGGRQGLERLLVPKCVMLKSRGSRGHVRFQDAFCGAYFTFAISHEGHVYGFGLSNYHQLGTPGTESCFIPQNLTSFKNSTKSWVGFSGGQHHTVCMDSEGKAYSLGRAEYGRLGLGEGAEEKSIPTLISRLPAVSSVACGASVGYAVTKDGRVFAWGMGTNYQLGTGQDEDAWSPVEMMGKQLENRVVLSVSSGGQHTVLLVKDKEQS
UniProt Q9UBS8: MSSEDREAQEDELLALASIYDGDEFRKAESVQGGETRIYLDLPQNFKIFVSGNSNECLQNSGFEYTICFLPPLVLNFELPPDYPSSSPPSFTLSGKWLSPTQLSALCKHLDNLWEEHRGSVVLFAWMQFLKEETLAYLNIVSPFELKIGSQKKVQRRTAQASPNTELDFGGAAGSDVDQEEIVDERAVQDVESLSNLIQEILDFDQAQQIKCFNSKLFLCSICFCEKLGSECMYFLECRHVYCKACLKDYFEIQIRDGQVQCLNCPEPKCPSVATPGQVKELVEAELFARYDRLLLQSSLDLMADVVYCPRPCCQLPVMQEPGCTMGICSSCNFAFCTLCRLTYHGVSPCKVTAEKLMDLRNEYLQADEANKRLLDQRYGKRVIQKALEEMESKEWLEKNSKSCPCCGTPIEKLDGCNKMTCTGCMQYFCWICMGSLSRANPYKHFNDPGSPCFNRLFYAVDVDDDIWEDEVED
UniProt Q9BVS4: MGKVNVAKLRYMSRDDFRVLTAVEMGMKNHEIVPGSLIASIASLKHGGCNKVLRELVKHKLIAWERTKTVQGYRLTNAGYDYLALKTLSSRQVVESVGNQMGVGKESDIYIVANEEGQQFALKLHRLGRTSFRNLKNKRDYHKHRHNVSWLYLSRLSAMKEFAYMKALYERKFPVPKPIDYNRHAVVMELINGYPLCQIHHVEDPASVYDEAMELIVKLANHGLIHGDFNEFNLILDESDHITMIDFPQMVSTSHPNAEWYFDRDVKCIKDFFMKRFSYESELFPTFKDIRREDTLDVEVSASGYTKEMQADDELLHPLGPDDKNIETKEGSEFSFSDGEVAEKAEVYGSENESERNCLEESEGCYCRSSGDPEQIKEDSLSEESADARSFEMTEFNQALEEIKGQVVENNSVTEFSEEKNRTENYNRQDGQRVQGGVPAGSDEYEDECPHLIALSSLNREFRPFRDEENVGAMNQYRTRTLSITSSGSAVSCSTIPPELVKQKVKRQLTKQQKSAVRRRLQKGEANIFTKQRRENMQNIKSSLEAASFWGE

Compound in assay [2]: C=CC(=O)N1CCC[C@@H](n2nc(-c3ccc(Oc4ccccc4)cc3)c3c(N)ncnc32)C1 [ibrutinib]
The essentials: as §1

Compound in assay [3]: CC(C)(C)Cn1c(N)nc2ccc(-c3[nH]c(C(C)(C)C)nc3-c3ccc(F)cc3)nc21 [ralimetinib]
The essentials: as §1

Compound in assay [4]: CC(C)(O)CC(=O)NCCn1ccc2ncnc(Nc3ccc(Oc4cccc(C(F)(F)F)c4)c(Cl)c3)c21
The essentials: as §1

Compound in assay [5]: CC(C)C1=C2N=C(C=C(N2N=C1)NCC3=CC=CC=C3)NCCCCCCN
The essentials: as §1

Compound in assay [6]: CC(C)C[C@@H](C=O)NC(=O)[C@H](CC(C)C)NC(=O)[C@H](CC(C)C)NC(=O)OCc1ccccc1
The essentials: as §1

Compound in assay [7]: CC(C)N(C[C@H]1O[C@@H](n2cnc3c(N)ncnc32)[C@H](O)[C@@H]1O)[C@H]1C[C@@H](CCc2nc3cc(C(C)(C)C)ccc3[nH]2)C1 [pinometostat]
The essentials:
as §1

Compound in assay [8]: CC1=C(C(CC(=O)N1)C2=CC=C(C=C2)C(F)(F)F)C(=O)NC3=C(C=C4C(=C3)C=NN4)F
The essentials: as §1

Compound in assay [9]: CC1=C(C=C(C=C1)NC(=O)C2=CC(=CC=C2)C(C)(C)C#N)NC3=CC4=C(C=C3)N=CN(C4=O)C
The essentials:
as §1

Compound in assay [10]: CC1=C(C=C(C=C1)NC(=O)C2=CC(=CC=C2)N(C)C)NC(=O)C3=CC=C(C=C3)O
The essentials:
as §1

Compound in assay [11]: CC1=CC=C(C=C1)SC2=C3C=C(SC3=CN=C2)C(=O)N
The essentials:
as §1

Compound in assay [12]: CC1=NC(=CC=C1)C2=C(N=C(N2)C(C)(C)C)C3=CC4=NC=CN=C4C=C3
The essentials:
as §1

Compound in assay [13]: CCCCN(Cc1ccc(C(=O)NO)cc1)C(=O)Nc1ccccc1 [Nexturastat A]
The essentials:
as §1

Compound in assay [14]: CCCS(=O)(=O)Nc1ccc(F)c(C(=O)c2c[nH]c3ncc(-c4ccc(Cl)cc4)cc23)c1F [vemurafenib]
The essentials:
as §1

Compound in assay [15]: CCCS(=O)(=O)Nc1ccc(F)c(C(=O)c2c[nH]c3ncc(Cl)cc23)c1F
The essentials:
as §1

Compound in assay [16]: CCCc1cc(C)[nH]c(=O)c1CNC(=O)c1cc(-c2ccnc(N3CCN(C)CC3)c2)cc2c1cnn2C(C)C
The essentials: as §1

Compound in assay [17]: CCN(CC)Cc1ccc2cc(COC(=O)Nc3ccc(C(=O)NO)cc3)ccc2c1 [givinostat]
The essentials:
as §1

Compound in assay [18]: CCN(CCCOc1ccc2c(Nc3cc(CC(=O)Nc4cccc(F)c4)[nH]n3)ncnc2c1)CCOP(=O)(O)O [barasertib]
The essentials: as §1

Compound in assay [19]: CC(=O)c1cnc2ccc(-c3cc(Cl)c(O)c(Cl)c3)nc2c1N[C@H]1CC[C@H](CN(C)C)CC1
The essentials: as §1

Compound in assay [20]: CC1=C(C2=C(C=C1)C(=O)C3=CC=CC=C3N2CCCN)C
The essentials:
as §1

The other results are listed elsewhere or left out. Residues, ends and D or L forms follow the SMILES beside them. *: point of attachment. Cbz = O=C(OCc1ccccc1)*

As to RHBDD1 (UniProt Q8TEB9), the log2 fold change in assay [1] is inactive: 0.113; in assay [2], inactive: 0.013; in [3], inactive: 0.113; in assay [4], inactive: -0.085; in assay [5], inactive: -0.052; in [6] it was inactive: -0.077. In addition, the log2 fold change in assay [7] is inactive: 0; in assay [8], inactive: -0.099; in assay [9] it was inactive: 0.088; in [10], inactive: 0.064; in assay [11] it was inactive: 0.043; in [12] it was inactive: 0.06. Moreover, the log2 fold change in assay [13] is inactive: 0.021; in assay [14], inactive: -0.058; in assay [15], inactive: 0.068; in assay [16], inactive: 0.231; in assay [17], inactive: -0.074; in assay [18], inactive: -0.031.
On to RHOXF2 (UniProt Q9BQY4), for which the log2 fold change in assay [1] was inactive: 0.012; in assay [2], inactive: 0.003; in assay [19], inactive: 0.002; in assay [3], inactive: 0.051; in [4] it was inactive: -0.031; in [5] it was inactive: -0.03. Also, the log2 fold change is inactive: 0.027 in assay [6]; inactive: -0.037 in [7]; inactive: -0.007 in [20]; inactive: -0.03 in [9]; inactive: 0.034 in assay [10]; inactive: -0.037 in [11]. Moreover, the log2 fold change in [12] was inactive: 0.021; in assay [13], inactive: 0.083; in assay [14], inactive: -0.015; in assay [15], inactive: 0.012; in assay [16], inactive: -0.024; in assay [17], inactive: 0.05. In addition, the log2 fold change in [18] was inactive: 0.033.
With RMC1 (UniProt Q96DM3), the log2 fold change was inactive: 0.038 in assay [1]; inactive: 0.03 in assay [2]; inactive: -0.026 in assay [19]; inactive: -0.025 in assay [3]; inactive: -0.002 in assay [4]; inactive: -0.209 in assay [5]. In addition, the log2 fold change in [6] is inactive: 0.011; in [7], inactive: -0.015; in [20] it was inactive: 0.039; in [9], inactive: 0.037; in assay [10], inactive: 0.001; in assay [11], inactive: -0.051. In addition, the log2 fold change was inactive: 0.024 in assay [12]; inactive: -0.031 in assay [13]; inactive: 0.061 in assay [14]; inactive: 0.031 in assay [15]; inactive: 0.021 in assay [16]; inactive: -0.013 in [17]. In addition, the log2 fold change in assay [18] was inactive: 0.039.
On to RHD (UniProt Q02161), for which the log2 fold change in [1] was inactive: -0.018; in assay [19] it was inactive: 0.003; in assay [5], inactive: -0.059; in [7] it was inactive: -0.031; in assay [8] it was inactive: -0.08; in [20], inactive: 0.055. Further, the log2 fold change in [11] is inactive: 0.031; in assay [12], inactive: -0.075; in [15], inactive: -0.1; in [17], inactive: 0.129.
For RCC1 isoform 2 (UniProt P18754), the log2 fold change in assay [1] was inactive: -0.026; in assay [2], inactive: -0.04; in assay [19] it was inactive: -0.14; in assay [3], inactive: 0; in [4] it was inactive: -0.16; in assay [5], inactive: -0.094. The log2 fold change in assay [6] is inactive: 0.041; in [7], inactive: 0.023; in assay [20], active: -0.899; in assay [9], inactive: 0.197; in assay [10] it was inactive: -0.129; in [11], inactive: 0.073. Further, the log2 fold change is inactive: 0.055 in [12]; inactive: -0.027 in [13]; inactive: 0.13 in assay [14]; inactive: 0.104 in assay [15]; inactive: 0.111 in assay [16]; inactive: 0.087 in assay [17]. For the same target, the log2 fold change in assay [18] was inactive: 0.053.
Consider RNF14 (UniProt Q9UBS8), for which the log2 fold change in assay [1] is inactive: 0.019; in assay [2] it was inactive: 0.006; in assay [19], inactive: 0.011; in [3], inactive: -0.008; in [4], inactive: -0.035; in assay [5], inactive: -0.039. Besides, the log2 fold change is inactive: 0.014 in [6]; inactive: -0.075 in assay [7]; inactive: -0.05 in assay [20]; inactive: 0.039 in [9]; inactive: -0.034 in assay [10]; inactive: 0.004 in [11]. The log2 fold change in assay [12] was inactive: 0.05; in assay [13], inactive: -0.04; in assay [14], inactive: 0.026; in assay [15], inactive: 0.04; in assay [16] it was inactive: 0.029; in assay [17] it was inactive: -0.07. Also, the log2 fold change in [18] was inactive: 0.036.
In the case of RNF167 (UniProt Q9H6Y7), the log2 fold change in assay [1] is inactive: -0.001; in [2], inactive: 0.015; in assay [19], inactive: 0.039; in assay [3] it was inactive: -0.018; in [4], inactive: -0.025; in [5], inactive: -0.047. Also, the log2 fold change was inactive: -0.009 in assay [6]; inactive: 0.015 in assay [7]; inactive: 0 in assay [20]; inactive: 0.037 in assay [9]; inactive: 0.008 in assay [10]; inactive: -0.041 in assay [11]. In addition, the log2 fold change in [12] was inactive: 0.037; in assay [13] it was inactive: -0.059; in assay [14], inactive: 0.031; in [15], inactive: -0.06; in [16], inactive: -0.096; in assay [17], inactive: 0.005. Further, in assay [18], the log2 fold change was inactive: 0.018.
Turning to RIOK2 (UniProt Q9BVS4), the log2 fold change in assay [1] was inactive: -0.061; in assay [2] it was inactive: 0.013; in assay [19], active: 0.465; in [3], inactive: 0.119; in assay [4], inactive: 0; in [5], inactive: -0.014. The log2 fold change in [6] was inactive: 0.084; in assay [7] it was inactive: 0.132; in [20], inactive: -0.068; in assay [9], inactive: 0.035; in [10] it was inactive: 0.006; in [11], inactive: -0.046. The log2 fold change is inactive: -0.021 in [12]; inactive: 0.178 in assay [13]; inactive: -0.001 in assay [14]; inactive: -0.007 in [15]; inactive: 0.056 in assay [16]; inactive: 0.035 in assay [17]. Also, the log2 fold change in assay [18] was inactive: 0.

The values are drawn from the supplement of paper PMC10849652.
